Measured values published in PMC12352791.
These are yes or no findings as the source states them, for the method shown. Binding seen in cells or lysates may run through a third protein. Here binding means that the protein was enriched with, or labelled near, the bait; the list need not be complete.

Sequences of proteins named here, by UniProt entry; tags and fusion partners are left off.
UniProt Q13546: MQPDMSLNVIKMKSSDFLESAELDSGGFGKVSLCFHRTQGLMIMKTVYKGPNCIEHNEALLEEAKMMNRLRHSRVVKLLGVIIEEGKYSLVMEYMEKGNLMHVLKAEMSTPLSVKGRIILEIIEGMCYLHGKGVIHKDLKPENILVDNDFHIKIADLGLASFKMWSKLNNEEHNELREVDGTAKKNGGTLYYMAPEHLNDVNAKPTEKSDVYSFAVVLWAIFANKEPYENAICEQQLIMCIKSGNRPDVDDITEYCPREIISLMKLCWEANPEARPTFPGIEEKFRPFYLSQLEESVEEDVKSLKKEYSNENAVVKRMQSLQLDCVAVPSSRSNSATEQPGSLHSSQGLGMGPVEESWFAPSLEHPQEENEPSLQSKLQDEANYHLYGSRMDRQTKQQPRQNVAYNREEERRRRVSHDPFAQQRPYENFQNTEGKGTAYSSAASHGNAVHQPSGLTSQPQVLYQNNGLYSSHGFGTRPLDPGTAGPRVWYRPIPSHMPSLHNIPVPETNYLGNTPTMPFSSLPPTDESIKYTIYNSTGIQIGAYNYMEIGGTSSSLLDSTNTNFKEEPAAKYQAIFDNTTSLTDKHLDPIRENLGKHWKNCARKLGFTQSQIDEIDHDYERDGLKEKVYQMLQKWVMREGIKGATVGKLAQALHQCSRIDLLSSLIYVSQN

Target: receptor-interacting serine/threonine-protein kinase 1 (RIPK1), endogenous in AC16 cells (human (endogenous in AC16)) (UniProt Q13546)
Assay: affinity purification with mass spectrometry; Co-IP of endogenous RIPK1 coupled with LC-MS/MS, under EtOH stimulation; NP-40 lysis buffer, Protein A/G magnetic beads, overnight at 4 °C

- binding: binds
B1: ubiquitin-specific protease 53 (USP53), endogenous in AC16 cells (protein, UniProt Q70EK8 1-1073)
chain: MAWVKFLRKPGGNLGKVYQPGSMLSLAPTKGLLNEPGQNSCFLNSAVQVLWQLDIFRRSLRVLTGHVCQGDACIFCALKTIFAQFQHSREKALPSDNIRHALAESFKDEQRFQLGLMDDAAECFENMLERIHFHIVPSRDADMCTSKSCITHQKFAMTLYEQCVCRSCGASSDPLPFTEFVRYISTTALCNEVERMLERHERFKPEMFAELLQAANTTDDYRKCPSNCGQKIKIRRVLMNCPEIVTIGLVWDSEHSDLTEAVVRNLATHLYLPGLFYRVTDENAKNSELNLVGMICYTSQHYCAFAFHTKSSKWVFFDDANVKEIGTRWKDVVSKCIRCHFQPLLLFYANPDGTAVSTEDALRQVISWSHYKSVAENMGCEKPVIHKSDNLKENGFGDQAKQRENQKFPTDNISSSNRSHSHTGVGKGPAKLSHIDQREKIKDISRECALKAIEQKNLLSSQRKDLEKGQRKDLGRHRDLVDEDLSHFQSGSPPAPNGFKQHGNPHLYHSQGKGSYKHDRVVPQSRASAQIISSSKSQILAPGEKITGKVKSDNGTGYDTDSSQDSRDRGNSCDSSSKSRNRGWKPMRETLNVDSIFSESEKRQHSPRHKPNISNKPKSSKDPSFSNWPKENPKQKGLMTIYEDEMKQEIGSRSSLESNGKGAEKNKGLVEGKVHGDNWQMQRTESGYESSDHISNGSTNLDSPVIDGNGTVMDISGVKETVCFSDQITTSNLNKERGDCTSLQSQHHLEGFRKELRNLEAGYKSHEFHPESHLQIKNHLIKRSHVHEDNGKLFPSSSLQIPKDHNAREHIHQSDEQKLEKPNECKFSEWLNIENSERTGLPFHVDNSASGKRVNSNEPSSLWSSHLRTVGLKPETAPLIQQQNIMDQCYFENSLSTECIIRSASRSDGCQMPKLFCQNLPPPLPPKKYAITSVPQSEKSESTPDVKLTEVFKATSHLPKHSLSTASEPSLEVSTHMNDERHKETFQVRECFGNTPNCPSSSSTNDFQANSGAIDAFCQPELDSISTCPNETVSLTTYFSVDSCMTDTYRLKYHQRPKLSFPESSGFCNNSLS
